# Test results reported in PubChem BioAssay (EPA / NIEHS).
# Protein sequences, listed by entry. Tags and fused reporters are not part of them. Lines headed by an entry give the natural chain unless they say otherwise; changes in a name come on top.
# UniProt P33261, whole entry, looked up: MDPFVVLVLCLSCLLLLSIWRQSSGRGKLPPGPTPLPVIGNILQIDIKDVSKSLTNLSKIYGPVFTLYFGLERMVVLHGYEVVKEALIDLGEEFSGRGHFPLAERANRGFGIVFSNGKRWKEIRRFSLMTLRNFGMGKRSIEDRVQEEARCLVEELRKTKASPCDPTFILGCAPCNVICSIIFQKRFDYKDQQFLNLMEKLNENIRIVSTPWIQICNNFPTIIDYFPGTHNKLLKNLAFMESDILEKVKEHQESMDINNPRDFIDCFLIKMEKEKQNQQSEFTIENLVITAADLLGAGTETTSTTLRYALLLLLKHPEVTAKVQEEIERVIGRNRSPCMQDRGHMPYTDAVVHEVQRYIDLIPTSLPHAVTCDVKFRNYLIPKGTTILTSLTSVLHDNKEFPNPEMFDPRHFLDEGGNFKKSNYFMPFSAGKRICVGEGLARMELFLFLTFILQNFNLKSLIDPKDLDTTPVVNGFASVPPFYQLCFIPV
# UniProt P11511: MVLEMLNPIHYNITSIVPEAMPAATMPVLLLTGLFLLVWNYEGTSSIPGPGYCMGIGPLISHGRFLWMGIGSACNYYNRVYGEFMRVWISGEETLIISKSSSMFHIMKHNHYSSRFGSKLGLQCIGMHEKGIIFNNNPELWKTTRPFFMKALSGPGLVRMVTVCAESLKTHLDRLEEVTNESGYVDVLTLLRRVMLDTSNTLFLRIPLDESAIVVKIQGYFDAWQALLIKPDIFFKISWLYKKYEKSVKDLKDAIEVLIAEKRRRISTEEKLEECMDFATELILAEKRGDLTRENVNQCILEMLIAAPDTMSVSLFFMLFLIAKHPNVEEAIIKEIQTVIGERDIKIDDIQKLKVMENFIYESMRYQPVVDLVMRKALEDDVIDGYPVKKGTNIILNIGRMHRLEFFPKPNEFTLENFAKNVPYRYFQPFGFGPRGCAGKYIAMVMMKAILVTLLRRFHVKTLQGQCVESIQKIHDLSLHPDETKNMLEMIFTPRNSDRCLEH
# UniProt P31751: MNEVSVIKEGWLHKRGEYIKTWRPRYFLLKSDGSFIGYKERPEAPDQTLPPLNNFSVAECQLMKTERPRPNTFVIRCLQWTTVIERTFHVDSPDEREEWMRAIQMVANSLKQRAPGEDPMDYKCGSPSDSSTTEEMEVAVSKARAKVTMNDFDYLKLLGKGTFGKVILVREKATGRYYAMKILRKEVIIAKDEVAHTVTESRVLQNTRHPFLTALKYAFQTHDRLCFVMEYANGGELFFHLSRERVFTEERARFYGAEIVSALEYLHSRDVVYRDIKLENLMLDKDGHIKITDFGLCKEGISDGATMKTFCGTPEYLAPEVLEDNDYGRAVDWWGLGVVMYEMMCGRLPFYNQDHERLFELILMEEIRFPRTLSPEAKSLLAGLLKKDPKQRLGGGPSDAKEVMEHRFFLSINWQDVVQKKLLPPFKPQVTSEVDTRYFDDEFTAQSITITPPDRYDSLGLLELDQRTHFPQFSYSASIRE
# UniProt P33535, whole entry, looked up: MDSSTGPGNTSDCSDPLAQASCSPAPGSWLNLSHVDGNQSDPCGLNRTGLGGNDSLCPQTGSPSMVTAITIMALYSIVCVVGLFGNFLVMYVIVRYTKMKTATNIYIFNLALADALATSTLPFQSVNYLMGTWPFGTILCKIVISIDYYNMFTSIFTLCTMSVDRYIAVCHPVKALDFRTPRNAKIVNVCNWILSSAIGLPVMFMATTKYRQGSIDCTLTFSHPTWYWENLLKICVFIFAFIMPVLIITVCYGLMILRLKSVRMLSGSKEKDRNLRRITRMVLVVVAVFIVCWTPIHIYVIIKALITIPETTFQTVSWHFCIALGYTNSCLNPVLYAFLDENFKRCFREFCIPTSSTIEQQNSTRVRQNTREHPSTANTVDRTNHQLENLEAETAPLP
# UniProt Q92731, whole entry, looked up: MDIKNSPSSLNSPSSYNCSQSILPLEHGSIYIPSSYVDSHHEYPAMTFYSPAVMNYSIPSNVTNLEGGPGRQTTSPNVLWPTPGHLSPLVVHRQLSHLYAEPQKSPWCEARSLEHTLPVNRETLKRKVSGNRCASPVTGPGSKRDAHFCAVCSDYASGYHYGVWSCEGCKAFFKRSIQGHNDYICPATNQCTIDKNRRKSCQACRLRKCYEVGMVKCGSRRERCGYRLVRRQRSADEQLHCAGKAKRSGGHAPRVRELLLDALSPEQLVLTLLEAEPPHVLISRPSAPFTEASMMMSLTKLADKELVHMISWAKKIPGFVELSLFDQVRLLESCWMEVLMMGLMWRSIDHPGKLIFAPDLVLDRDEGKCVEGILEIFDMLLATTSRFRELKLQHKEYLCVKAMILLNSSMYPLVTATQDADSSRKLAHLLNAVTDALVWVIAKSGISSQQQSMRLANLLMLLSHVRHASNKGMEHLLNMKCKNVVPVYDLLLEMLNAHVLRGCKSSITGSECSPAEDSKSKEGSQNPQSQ
# UniProt P06401: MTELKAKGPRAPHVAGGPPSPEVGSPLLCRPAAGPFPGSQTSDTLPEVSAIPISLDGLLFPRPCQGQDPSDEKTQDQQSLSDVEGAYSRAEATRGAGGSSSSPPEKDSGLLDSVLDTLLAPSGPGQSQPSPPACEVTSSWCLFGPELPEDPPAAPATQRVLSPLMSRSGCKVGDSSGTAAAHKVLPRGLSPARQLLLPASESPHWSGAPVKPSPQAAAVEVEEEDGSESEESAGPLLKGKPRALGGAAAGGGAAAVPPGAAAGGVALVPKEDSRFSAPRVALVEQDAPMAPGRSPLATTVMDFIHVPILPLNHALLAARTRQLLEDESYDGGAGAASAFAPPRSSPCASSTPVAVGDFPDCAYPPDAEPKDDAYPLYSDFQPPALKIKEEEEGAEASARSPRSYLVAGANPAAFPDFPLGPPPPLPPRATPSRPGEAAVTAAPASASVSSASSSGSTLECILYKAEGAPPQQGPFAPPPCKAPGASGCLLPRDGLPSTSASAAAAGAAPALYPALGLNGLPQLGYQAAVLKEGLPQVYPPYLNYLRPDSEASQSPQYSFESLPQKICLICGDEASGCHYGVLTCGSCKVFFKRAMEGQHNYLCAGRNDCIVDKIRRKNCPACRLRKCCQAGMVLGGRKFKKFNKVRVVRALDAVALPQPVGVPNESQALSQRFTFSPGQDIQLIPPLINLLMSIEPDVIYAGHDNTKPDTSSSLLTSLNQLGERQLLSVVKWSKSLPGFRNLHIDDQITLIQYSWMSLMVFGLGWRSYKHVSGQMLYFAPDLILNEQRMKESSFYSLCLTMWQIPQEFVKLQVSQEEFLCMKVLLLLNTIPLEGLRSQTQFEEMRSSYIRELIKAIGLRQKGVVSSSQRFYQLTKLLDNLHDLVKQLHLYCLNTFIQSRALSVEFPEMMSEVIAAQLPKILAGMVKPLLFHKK
# This list was built around the results that the source calls inconclusive (neither active nor inactive); the mix of calls is not that of the screen. For some assays here: Where the call is inconclusive, the potency comes from a doubtful curve fit. Active and inactive are the calls of the source. Rule for the calls: active = hit-call score of the fitted dose curve at least 0.9, where 1 is the maximum; inconclusive = response in the unintended direction; inactive = score below 0.9.
# Experiments:
# [1] = read-out: Cytochrome P450 2C19 (Homo sapiens) (UniProt P33261); assay: CLD_CYP2C19_48hr: CellzDirect (CLD) Gene Expression Assay for xenobiotic metabolism (CYP2C19) at 48 hours (AID 2283700)
# Summary of the method: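 Primary human hepatocytes (two donor preparations) dosed daily for two days, harvested at 48 h; CYP2C19 mRNA induction measured by qNPA chemiluminescence. Gain-of-signal fitted relative to 0.2% DMSO vehicle as baseline.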
# [2] = read-out: xenobiotic metabolism (CYP1A2), CYP1A2 (gene 1544); assay: CLD_CYP1A2_48hr: CellzDirect (CLD) Gene Expression Assay for xenobiotic metabolism (CYP1A2) at 48 hours (AID 2283703)
# Summary of the method: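 Primary human hepatocytes from two donor preparations were dosed daily for two days at multiple concentrations in 0.2% DMSO vehicle. CYP1A2 mRNA was measured at 48 hours by chemiluminescent quantitative nuclease protection assay, with gain of signal fitted versus DMSO and cytotoxicity annotated from morphology.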
# [3] = read-out: organic anion transporter (SLCO1B1), SLCO1B1 (gene 10599); assay: CLD_SLCO1B1_48hr: CellzDirect (CLD) Gene Expression Assay for organic anion transporter (SLCO1B1) at 48 hours (AID 2283707)
# Summary of the method: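 Primary human hepatocytes from two donor preparations dosed daily for two days with multiple concentrations, 0.2% DMSO vehicle. SLCO1B1 mRNA at 48 h by quantitative nuclease protection assay, chemiluminescence; gain-of-signal fitted versus DMSO.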
# [4] = biological target: human CYP19A1, CYP19A1 (gene 1588) (UniProt P11511); assay: NVS_ADME_hCYP19A1: NovaScreen (NVS) CYP450-related Enzyme Activity (ADME) Assay for human CYP19A1 (AID 2283098);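 note: potency for inhibitors seen as loss of fluorescent enzyme signal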
# Summary of the method: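 Recombinant enzyme in a cell-free format, read 0.5 h after dosing by fluorescence from a fluorogenic substrate. Loss of signal was fitted against acetonitrile as baseline. Primary screen in duplicate at 10 uM, actives then tested in concentration series.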
# [5] = biological target: human AKT serine/threonine Kinase 2 (AKT2), AKT2 (gene 208) (UniProt P31751); assay: NVS_ENZ_hAKT2: NovaScreen (NVS) Enzymatic Assay for human AKT serine/threonine Kinase 2 (AKT2) (AID 2283141)
# Summary of the method: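 Cell-free fluorescence/electrophoretic mobility shift readout of recombinant human AKT2 activity, 1 h after chemical dosing. Duplicate primary screen at 25 uM, then singleton concentration-response up to 50 uM; loss of signal versus DMSO baseline.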
# [6] = system: guinea pig Atrionatriuretic Peptide Receptor A (ANPA), gene 100135578; assay: NVS_GPCR_gANPA: NovaScreen (NVS) G Protein-Coupled Receptor Assay for guinea pig Atrionatriuretic Peptide Receptor A (ANPA) (AID 2283291)
# Summary of the method: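 Radioligand binding to guinea pig cerebellar membranes was measured after 1 h by filter-based scintillation counting. Chemicals were tested in duplicate at 25 uM, with hits run in concentration-response to a maximum of 50 uM. Binding loss was fitted against DMSO.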
# [7] = biological target: rat Opioid Receptor, Non-selective Sodium (Na+) Binding, Oprm1 (gene 25601) (UniProt P33535); assay: NVS_GPCR_rOpiate_NonSelectiveNa: NovaScreen (NVS) G Protein-Coupled Receptor Assay for rat Opioid Receptor, Non-selective Sodium (Na+) Binding (AID 2283311)
# Summary of the method: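 Rat forebrain membranes, radioligand displacement with filter scintillation counting, 1.5 h incubation. Screened in duplicate at 25 µM; hits then run in concentration-response up to 50 µM; loss of binding fitted versus DMSO.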
# [8] = ArunA_Migration_hNP: ArunA Biomedical's Oris Neuroprogenitor (hNP) Cell Migration Assay (AID 2283754)
# Summary of the method: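 Human H9-derived hNP1 neuroprogenitors on Matrigel with LIF/bFGF, plated around seeding stoppers for 16 h at 37C; stoppers removed at start of 72 h chemical exposure. Calcein-AM staining, fluorescence 494/517 nm in detection zone; loss-of-signal vs DMSO; cytochalasin D control.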
# [9] = ArunA_NOG_NucleusCount: ArunA Biomedical's Neurite Outgrowth (NOG) Assay for Nucleus Count (AID 2283756)
# Summary of the method: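 Human H9-derived differentiated neurons were exposed for 48 h right after seeding. Hoechst-stained nuclei gated by size and intensity were counted by automated high-content imaging as viable neurons. Loss of signal vs DMSO.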
# [10] = system: turtle Estrogen Receptor (ESR1), gene 101933533; assay: ATG_trERa_XSP1: Attagene TRANS-FACTORIAL Multi-Species (XSP1) HepG2 Assay for turtle Estrogen Receptor (ESR1) (AID 2283781)
# Summary of the method: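 Turtle ERa as a GAL4 chimera in transiently transfected HepG2 cells; reporter mRNA quantified 24 h after dosing by RT-PCR and capillary electrophoresis. 3 nM 6-alpha-fluorotestosterone present; gain of signal versus DMSO.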
# [11] = biological target: Estrogen receptor beta (Homo sapiens) (UniProt Q92731); assay: ATG_hERb_XSP1: Attagene TRANS-FACTORIAL Multi-Species (XSP1) HepG2 Assay for human Estrogen Receptor (ESR2) (AID 2283788)
# Summary of the method: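 HepG2 cells transiently transfected with GAL4-UAS multiplexed reporter units, 3 nM 6-alpha-fluorotestosterone present; 24 h exposure. Reporter mRNA measured by RT-PCR, fluorescent labelling and capillary electrophoresis; gain of signal fitted against DMSO.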
# [12] = ATG_M_61_XSP1: Attagene TRANS-FACTORIAL Multi-Species (XSP1) HepG2 Assay for M61 Transcription Factor (Internal Marker) (AID 2283797)
# Summary of the method: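 HepG2 cells transiently transfected with multiplexed GAL4-driven reporter units, dosed 24 h with 3 nM 6-alpha-fluorotestosterone present. Reporter mRNA quantified by RT-PCR, 6-FAM labelling, HpaI digestion and capillary electrophoresis; internal-marker background control, gain of signal versus DMSO.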
# [13] = TAMU_HCS_1.5hr_SingleDonor1434_Cytotoxicity: Cytotoxicity Assessment using High-content Screening (HCS) Fluorescent Imaging for the Texas A&M University (TAMU) 1.5-hr Human Induced Pluripotent Stem Cell (iPSC)-derived Cardiotoxicity Assay (AID 2284234)
# Summary of the method: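 Human iPSC-derived cardiomyocytes dosed at 0.2, 1, 10, 100 uM final (0.5% DMSO) for 90 min at 37 C. Hoechst 33342-stained nuclei counted by 10x high-content imaging; POD is EC10, a 10% drop in total cell count versus DMSO.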
# [14] = biological target: PGR (gene 5241) (UniProt P06401); assay: TOX21_PR_BLA_Followup_Agonist_ratio: Tox21 HEK293 Progesterone Receptor (PR) Agonism Beta-lactamase Follow-Up Assay, Ratio (AID 2283933)
# Summary of the method: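 Agonist-mode follow-up in HEK293T cells carrying a UAS-driven beta-lactamase reporter, grown in 2% charcoal-stripped serum. Compounds act for 16 hr; activity is the ch2/ch1 cleavage ratio, with same-well CellTiter-Glo viability run in parallel.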
# [15] = biological target: PGR (gene 5241) (UniProt P06401); assay: TOX21_PR_LUC_Followup_Antagonist: Tox21 HEK293 Progesterone Receptor (PR) Antagonism Luciferase Follow-Up Assay (AID 2283938);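 note: curve fitted upward as signal gain over DMSO baseline despite antagonist label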
# Summary of the method: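 HEK293-PR-A-luc cells were precultured 5 days in medium with 10% charcoal-stripped FBS, seeded 3,000/well, then exposed to compounds in DMSO for 16 h at 37C. Luciferase was read by ONE-Glo luminescence after 30 min at room temperature.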
# [16] = TOX21_PR_LUC_Followup_Agonist_viability: Viability Assessment in the Tox21 HEK293 Progesterone Receptor (PR) Agonism Luciferase Follow-Up Assay (AID 2283941);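 note: loss of signal means cytotoxicity so actives lower viability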
# Summary of the method: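 Luminescent ATP quantitation (CellTiter-Glo) serves as the read-out; a drop flags cytotoxic compounds. Cells are HEK293-PR-A-luc grown in 10% charcoal-stripped FBS, plated 3,000/well, and exposed to compound for 16 h.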
# [17] = biological target: rat Opioid Receptor, Non-selective Binding, Oprm1 (gene 25601) (UniProt P33535); assay: NVS_GPCR_rOpiate_NonSelective: NovaScreen (NVS) G Protein-Coupled Receptor Assay for rat Opioid Receptor, Non-selective Binding (AID 2283318)
# Summary of the method: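 Rat forebrain membranes, cell-free radioligand binding with filter-based scintillation counting, read 1.5 h after dosing. Primary screen in duplicate at 25 uM; actives retested in concentration series. Loss of signal versus DMSO baseline scored.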
# [18] = ArunA_Migration_hNC: ArunA Biomedical's Oris Neural Crest (hNC) Cell Migration Assay (AID 2283755)
# Summary of the method: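 Human H9-derived neural crest stem cells, 60,000/well on Matrigel, 16 h at 37C, then 72 h chemical exposure after seeding-stopper removal. Migration into detection zone read as calcein-AM fluorescence (ex494/em517), relative to DMSO.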
# [19] = CCTE_Simmons_MITO_viability: CellTiter-Glo Viability Assessment for CCTE's HepG2 Seahorse XF Respirometric Screening Assay [post-hoc], Simmons Lab (AID 2284007)
# Summary of the method: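 HepG2 cells; test chemical 7 conc. (125 nM–100 uM final) × 90 min; then luminescent ATP detection. DMSO vehicle. Positive control dichlone, 8 conc. from 10 nM to 100 uM final. Loss-of-signal endpoint.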
# [20] = Tanguay_ZF_120hpf_ActivityScore_legacy: (Legacy) Oregon State University Tanguay Lab 120 Hour Post-fertilization zebrafish Assay Score for Activity (AID 2283742)
# Summary of the method: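 Dechorionated Tropical 5D embryos, one per well from 6 hpf, statically exposed to 120 hpf at 28 °C in 0.64% DMSO. Mortality and malformations scored binary by brightfield microscopy; activity score combines 18 endpoints, fitted positively versus DMSO.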
compound,measurement,setting,value
CCOC(=O)[C@H](C)Oc1ccc(Oc2nc3ccc(Cl)cc3o2)cc1,AC50,[1],inconclusive: 20 µM
same,AC50,[2],active: 20 µM
same,outcome,[3],inactive
CC(=O)[C@H]1CC[C@H]2[C@@H]3CCC4=CC(=O)CC[C@]4(C)[C@H]3CC[C@]12C,AC50,[4],inconclusive: 10 µM
same,AC50,[5],inconclusive: 25 µM
CC(C)(c1cc(Br)c(O)c(Br)c1)c1cc(Br)c(O)c(Br)c1,outcome,[6],inactive
same,outcome,[7],inactive
same,AC50,[8],inconclusive: 0.01 µM
same,AC50,[9],inconclusive: 5 µM
same,outcome,[10],inactive
same,outcome,[11],inactive
same,outcome,[12],inactive
same,AC50,[13],active: 84.8 µM
C[C@H]1C[C@@H]2[C@H]([C@@H](O)C[C@@]3(C)[C@H]2CC[C@]3(O)C(=O)CO)[C@@]2(C)C=CC(=O)C=C12,AC50,[14],active: 58.7 µM
same,AC50,[15],inconclusive: 0.0196 µM
same,AC50,[16],inconclusive: 46.1 µM
COC(=O)[C@H]1[C@H]2C[C@@H]3c4[nH]c5cc(OC)ccc5c4CCN3C[C@H]2C[C@@H](OC(=O)c2cc(OC)c(OC)c(OC)c2)[C@@H]1OC,AC50,[17],active: 8.39 µM
same,AC50,[18],active: 50 µM
Cc1c(-c2cccnc2)c2ccccc2n1CCCCC(=O)O,outcome,[19],inactive
O=[Si]=O,outcome,[20],inactive

# As a short view, part of the list above.
compound,measurement,setting,value
CC(C)(c1cc(Br)c(O)c(Br)c1)c1cc(Br)c(O)c(Br)c1,outcome,[11],inactive
same,outcome,[12],inactive
